According to US20220265694A1, “COMPOSITIONS AND METHODS FOR TREATING AN INFECTION” (CMPD LICENSING, LLC, priority 2016, published 2022):

Tested on: Mycoplasma pneumoniae
Assay: Expected efficacy of antibiotic agents
Conditions: expected efficacy against Mycoplasma pneumoniae; Gram: n/a

O=C(O)c1cn(C2CC2)c2cc(N3CCNCC3)c(F)cc2c1=O [Ciprofloxacin]
Efficacy: yes
